Measurements published in paper PMC10746710.

Protein sequences, listed by entry. Tags and fused reporters are not part of them. Lines headed by an entry give the natural chain unless they say otherwise; changes in a name come on top. Chains listed by the source or under a name are the forms on record and can include a tag or linker.
UniProt Q8N6T7: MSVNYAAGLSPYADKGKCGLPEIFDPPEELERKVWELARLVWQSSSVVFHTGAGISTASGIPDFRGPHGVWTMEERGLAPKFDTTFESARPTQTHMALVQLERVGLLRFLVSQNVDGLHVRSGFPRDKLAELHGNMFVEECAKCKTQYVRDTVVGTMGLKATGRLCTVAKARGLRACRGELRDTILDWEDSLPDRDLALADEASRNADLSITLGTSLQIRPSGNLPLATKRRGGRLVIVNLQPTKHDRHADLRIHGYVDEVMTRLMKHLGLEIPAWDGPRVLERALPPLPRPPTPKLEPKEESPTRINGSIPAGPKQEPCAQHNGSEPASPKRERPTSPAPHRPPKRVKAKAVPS
HA-tagged RORγt, expressed in HEK293T cells (P51449-2, form named): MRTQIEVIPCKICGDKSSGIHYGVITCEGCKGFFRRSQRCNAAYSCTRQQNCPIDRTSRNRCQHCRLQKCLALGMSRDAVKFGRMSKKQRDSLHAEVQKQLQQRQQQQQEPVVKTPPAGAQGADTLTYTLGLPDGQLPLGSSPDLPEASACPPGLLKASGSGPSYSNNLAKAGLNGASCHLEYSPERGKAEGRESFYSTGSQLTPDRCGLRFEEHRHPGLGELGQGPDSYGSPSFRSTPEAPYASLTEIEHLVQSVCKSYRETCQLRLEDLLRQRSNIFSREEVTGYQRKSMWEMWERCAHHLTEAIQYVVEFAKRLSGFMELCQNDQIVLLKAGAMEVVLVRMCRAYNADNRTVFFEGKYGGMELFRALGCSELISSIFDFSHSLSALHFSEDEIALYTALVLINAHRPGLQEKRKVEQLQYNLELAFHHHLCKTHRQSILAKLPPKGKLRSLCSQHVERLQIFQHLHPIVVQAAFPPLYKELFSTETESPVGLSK

Experiments:
[1] = biological target: SIRT6-ΔN (43-355aa) (UniProt Q8N6T7); experiment: co-IP; HEK293T cells transfected with Flag-tagged SIRT6 or truncations plus HA-tagged RORγt, 24 h; IP with antibody to Flag
[2] = biological target: SIRT6 co-expressed with RORγt or RORγt-ΔPY in HEK293T cells (UniProt Q8N6T7); experiment: co-IP; HEK293T cells transfected with combinations of plasmids (SIRT6, RORγt, RORγt-ΔPY); IP with anti-Flag, immunoblot with anti-HA or anti-Flag

binding [1]	binding [2]	Substance
binds	–	HA-tagged RORγt, expressed in HEK293T cells (from UniProt P51449-2 1-497)
–	no binding	RORγt-ΔPY (deletion of amino acids 476-479 of the PPXY motif) (from UniProt P51449-2)

These are yes or no findings as the source states them, for the method shown. In cells and extracts the contact can be indirect. For some assays here: A result given as binding can be weak or reduced; the word gives no strength.
